Source: the supplement of paper PMC10849652
This is one part of the list.

Amino acid sequences for entries named in this document (tags omitted). A change or cut given only in a name is not applied to a line headed by its entry.
UniProt O75907: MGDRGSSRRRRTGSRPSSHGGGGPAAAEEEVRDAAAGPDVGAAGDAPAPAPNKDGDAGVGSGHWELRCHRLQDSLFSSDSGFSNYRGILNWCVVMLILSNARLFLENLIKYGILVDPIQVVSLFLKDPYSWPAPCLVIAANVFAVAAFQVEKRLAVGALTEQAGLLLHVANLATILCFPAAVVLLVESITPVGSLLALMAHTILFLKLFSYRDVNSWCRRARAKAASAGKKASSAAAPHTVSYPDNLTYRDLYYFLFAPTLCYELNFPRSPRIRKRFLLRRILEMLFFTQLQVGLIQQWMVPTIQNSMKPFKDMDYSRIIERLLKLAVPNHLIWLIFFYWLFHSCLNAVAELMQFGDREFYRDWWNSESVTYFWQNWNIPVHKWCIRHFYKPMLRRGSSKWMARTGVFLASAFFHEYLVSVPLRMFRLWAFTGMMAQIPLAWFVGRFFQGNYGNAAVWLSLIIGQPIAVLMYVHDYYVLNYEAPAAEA
UniProt Q13838, whole entry, looked up: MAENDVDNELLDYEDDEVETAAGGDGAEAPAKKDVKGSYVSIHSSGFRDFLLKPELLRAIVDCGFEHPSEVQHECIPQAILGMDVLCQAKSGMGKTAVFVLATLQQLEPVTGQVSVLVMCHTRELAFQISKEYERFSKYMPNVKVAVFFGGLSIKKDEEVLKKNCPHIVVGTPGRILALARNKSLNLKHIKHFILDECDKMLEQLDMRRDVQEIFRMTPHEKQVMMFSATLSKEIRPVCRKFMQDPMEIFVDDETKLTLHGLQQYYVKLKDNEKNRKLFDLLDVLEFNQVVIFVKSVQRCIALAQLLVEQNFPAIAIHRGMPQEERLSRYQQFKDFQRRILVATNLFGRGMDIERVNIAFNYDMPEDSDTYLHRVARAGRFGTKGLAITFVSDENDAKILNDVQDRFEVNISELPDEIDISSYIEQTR
UniProt Q86SQ9: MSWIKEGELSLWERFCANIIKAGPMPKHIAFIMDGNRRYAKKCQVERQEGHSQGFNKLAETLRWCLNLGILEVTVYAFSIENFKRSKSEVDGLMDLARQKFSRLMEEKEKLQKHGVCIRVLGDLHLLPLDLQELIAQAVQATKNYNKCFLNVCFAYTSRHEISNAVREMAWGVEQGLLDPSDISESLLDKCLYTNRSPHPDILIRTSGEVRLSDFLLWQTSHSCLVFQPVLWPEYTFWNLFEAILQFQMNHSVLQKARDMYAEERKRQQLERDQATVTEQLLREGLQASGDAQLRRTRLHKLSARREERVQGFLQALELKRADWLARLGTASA
UniProt Q7L014: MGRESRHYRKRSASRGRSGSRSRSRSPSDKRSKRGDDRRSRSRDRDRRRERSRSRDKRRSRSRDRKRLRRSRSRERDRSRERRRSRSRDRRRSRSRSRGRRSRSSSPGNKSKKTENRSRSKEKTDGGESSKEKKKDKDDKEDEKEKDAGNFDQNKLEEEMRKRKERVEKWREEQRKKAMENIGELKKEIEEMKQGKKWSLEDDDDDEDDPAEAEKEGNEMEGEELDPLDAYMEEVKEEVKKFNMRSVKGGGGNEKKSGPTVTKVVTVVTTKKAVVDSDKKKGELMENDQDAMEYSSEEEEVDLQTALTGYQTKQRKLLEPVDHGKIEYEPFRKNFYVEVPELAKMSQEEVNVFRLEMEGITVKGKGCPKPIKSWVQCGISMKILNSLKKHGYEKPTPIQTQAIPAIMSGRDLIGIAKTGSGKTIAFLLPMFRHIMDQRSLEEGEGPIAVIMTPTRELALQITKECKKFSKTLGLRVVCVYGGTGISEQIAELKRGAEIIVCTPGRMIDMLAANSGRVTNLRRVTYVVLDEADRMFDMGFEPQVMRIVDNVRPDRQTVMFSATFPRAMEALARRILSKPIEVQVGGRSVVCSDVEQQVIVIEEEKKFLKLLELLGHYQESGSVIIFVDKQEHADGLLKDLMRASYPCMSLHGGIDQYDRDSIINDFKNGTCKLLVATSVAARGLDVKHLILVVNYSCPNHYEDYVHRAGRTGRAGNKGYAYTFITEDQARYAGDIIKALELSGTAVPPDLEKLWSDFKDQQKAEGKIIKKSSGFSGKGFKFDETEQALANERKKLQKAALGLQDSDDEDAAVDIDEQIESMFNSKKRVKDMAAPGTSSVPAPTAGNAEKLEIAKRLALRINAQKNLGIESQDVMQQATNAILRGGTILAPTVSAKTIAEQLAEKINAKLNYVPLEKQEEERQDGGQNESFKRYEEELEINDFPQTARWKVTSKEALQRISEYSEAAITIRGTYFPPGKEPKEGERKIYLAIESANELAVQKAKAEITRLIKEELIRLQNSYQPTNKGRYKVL
UniProt Q99766: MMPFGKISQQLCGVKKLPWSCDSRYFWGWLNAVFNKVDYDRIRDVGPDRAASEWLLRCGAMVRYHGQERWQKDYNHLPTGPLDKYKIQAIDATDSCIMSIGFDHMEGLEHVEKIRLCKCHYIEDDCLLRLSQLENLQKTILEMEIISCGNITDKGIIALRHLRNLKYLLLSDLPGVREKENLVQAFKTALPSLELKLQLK
UniProt P98153: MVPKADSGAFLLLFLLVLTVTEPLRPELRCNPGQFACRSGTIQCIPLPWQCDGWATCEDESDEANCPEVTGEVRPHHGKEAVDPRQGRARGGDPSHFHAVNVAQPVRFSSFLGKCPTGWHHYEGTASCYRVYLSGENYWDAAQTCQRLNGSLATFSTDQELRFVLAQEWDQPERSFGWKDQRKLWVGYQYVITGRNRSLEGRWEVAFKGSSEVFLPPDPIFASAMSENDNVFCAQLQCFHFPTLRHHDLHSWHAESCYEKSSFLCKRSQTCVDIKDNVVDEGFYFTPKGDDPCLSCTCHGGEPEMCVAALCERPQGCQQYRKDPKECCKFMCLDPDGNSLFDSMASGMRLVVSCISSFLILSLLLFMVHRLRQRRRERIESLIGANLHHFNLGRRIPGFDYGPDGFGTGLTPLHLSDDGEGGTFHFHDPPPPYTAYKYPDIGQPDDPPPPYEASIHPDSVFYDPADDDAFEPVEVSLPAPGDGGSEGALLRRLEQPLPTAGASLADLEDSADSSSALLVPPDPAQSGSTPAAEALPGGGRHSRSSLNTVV
UniProt P36957: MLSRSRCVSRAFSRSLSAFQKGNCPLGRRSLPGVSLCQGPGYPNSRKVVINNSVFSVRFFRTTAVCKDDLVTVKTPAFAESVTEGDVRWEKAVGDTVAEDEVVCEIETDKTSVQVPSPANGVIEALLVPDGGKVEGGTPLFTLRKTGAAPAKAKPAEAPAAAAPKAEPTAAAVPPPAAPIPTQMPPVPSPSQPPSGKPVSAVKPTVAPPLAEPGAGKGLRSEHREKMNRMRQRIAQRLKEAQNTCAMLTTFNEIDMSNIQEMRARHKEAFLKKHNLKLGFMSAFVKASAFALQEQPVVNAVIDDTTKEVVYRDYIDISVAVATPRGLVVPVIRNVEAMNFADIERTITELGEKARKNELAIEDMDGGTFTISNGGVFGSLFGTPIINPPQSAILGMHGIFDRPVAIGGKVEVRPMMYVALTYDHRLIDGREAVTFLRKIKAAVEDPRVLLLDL
UniProt Q9UHI6: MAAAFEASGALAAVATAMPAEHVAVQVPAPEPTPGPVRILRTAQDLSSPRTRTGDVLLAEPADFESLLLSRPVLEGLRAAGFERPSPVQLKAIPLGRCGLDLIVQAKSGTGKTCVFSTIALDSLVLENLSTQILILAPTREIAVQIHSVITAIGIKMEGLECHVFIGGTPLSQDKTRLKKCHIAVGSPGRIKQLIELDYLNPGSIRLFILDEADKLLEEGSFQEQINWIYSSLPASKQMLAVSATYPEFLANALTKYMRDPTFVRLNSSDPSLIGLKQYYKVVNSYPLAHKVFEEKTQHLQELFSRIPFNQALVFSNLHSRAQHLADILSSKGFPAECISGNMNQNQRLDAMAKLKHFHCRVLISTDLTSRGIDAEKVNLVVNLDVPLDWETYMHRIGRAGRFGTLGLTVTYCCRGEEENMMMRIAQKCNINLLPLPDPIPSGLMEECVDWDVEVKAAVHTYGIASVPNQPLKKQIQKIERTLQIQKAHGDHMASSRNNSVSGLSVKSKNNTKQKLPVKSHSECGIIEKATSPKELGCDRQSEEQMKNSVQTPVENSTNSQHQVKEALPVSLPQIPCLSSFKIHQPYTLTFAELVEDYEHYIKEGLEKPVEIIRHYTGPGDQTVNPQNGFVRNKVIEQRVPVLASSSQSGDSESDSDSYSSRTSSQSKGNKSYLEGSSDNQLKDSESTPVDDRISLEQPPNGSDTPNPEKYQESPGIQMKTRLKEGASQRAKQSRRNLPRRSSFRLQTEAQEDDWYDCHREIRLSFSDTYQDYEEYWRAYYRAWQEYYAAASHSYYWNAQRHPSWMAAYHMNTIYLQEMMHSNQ
UniProt O75911: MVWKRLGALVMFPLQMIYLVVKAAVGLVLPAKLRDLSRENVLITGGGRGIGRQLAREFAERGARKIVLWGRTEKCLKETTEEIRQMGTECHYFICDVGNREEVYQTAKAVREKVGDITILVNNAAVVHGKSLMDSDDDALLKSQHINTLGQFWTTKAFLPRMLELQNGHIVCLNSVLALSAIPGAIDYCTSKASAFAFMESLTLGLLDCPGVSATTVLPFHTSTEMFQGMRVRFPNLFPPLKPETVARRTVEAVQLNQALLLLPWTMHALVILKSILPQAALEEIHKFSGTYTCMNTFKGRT
UniProt Q7Z401: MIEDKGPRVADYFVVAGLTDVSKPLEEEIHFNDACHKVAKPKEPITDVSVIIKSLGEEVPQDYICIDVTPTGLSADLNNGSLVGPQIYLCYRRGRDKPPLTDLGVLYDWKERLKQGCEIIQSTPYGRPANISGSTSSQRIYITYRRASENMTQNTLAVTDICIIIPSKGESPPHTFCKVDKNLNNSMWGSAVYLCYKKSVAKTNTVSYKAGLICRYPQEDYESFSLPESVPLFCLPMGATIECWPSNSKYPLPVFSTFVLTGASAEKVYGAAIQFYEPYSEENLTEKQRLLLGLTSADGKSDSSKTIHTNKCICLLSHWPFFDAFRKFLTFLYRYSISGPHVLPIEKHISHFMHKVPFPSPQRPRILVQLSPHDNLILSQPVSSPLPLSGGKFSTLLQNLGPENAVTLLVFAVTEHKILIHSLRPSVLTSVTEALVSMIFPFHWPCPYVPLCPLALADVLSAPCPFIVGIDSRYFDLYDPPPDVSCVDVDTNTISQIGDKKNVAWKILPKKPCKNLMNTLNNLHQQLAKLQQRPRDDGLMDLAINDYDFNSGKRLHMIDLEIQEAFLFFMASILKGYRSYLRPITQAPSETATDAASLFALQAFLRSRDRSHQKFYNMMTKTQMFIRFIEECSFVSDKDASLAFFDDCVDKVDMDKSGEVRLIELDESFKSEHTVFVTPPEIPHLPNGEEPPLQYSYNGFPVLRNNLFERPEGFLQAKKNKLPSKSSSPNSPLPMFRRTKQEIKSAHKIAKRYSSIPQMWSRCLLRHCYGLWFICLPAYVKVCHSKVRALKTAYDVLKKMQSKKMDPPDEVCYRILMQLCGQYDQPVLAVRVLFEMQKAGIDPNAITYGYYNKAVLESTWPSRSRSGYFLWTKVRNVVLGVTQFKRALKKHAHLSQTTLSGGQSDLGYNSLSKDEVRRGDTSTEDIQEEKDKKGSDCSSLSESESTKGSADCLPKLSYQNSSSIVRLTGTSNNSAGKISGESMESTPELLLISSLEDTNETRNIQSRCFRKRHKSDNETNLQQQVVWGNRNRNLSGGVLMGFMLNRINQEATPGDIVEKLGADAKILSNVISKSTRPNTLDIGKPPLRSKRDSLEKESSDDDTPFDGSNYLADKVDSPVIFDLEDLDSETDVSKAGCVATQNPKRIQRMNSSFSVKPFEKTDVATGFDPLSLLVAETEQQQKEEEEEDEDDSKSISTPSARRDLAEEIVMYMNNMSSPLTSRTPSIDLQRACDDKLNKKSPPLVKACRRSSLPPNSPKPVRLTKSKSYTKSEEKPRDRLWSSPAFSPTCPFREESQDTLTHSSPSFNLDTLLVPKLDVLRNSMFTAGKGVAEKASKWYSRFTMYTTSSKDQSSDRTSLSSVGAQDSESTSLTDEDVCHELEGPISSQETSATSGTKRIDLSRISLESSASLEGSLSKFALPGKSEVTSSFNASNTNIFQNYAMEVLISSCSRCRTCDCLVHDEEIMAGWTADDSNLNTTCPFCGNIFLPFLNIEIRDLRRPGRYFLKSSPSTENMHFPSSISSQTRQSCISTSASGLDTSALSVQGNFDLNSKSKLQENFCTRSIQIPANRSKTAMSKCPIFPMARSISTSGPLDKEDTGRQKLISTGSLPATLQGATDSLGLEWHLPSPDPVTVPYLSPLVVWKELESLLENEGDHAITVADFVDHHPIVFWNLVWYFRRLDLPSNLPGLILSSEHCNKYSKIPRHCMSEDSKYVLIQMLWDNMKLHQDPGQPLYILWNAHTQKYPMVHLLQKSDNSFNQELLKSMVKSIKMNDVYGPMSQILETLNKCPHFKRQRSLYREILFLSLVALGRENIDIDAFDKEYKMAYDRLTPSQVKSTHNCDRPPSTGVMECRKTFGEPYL

Tests used:
Assay in all cases: log2 fold change, soluble protein after heating vs DMSO (PISA); higher = thermal stabilisation; K562 cells, 10 uM, 30 min; active = over 0.2 and 3.5 SD of the protein, either way, in both replicates (recomputed)
[1] = compound: CC[C@@H]1C(=O)N(C)c2cnc(Nc3ccc(C(=O)NC4CCN(C)CC4)cc3OC)nc2N1C1CCCC1
Method in brief: (§1)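 K562 cells at 2×10^6 cells/mL were exposed to 10 μM compound for 30 min, then aliquots were heated for 3 min across 48°C-58°C, pooled, and extracted in PBS containing 0.5% NP-40 at 4°C. The supernatant after 21,000xg for 90 min was taken as soluble protein and measured by TMTpro 16plex LC-MS/MS with channel sums equalised. Thermal stability is reported relative to control samples, with values from duplicates. Fold changes are given on a log2 scale.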

volasertib = compound: CC[C@@H]1C(=O)N(C)c2cnc(Nc3ccc(C(=O)N[C@H]4CC[C@H](N5CCN(CC6CC6)CC5)CC4)cc3OC)nc2N1C(C)C [volasertib]
Method in brief: as §1

[2] = compound: CC[C@H](C)N1C=C(C2=C(C=C(C=C21)C3=CN=C(C=C3)N4CCNCC4)C(=O)NCC5=C(C=C(NC5=O)C)C)C
Method in brief: as §1

epoxomicin = compound: CC[C@H](C)[C@@H](C(=O)N[C@@H]([C@@H](C)O)C(=O)N[C@@H](CC(C)C)C(=O)[C@]1(CO1)C)NC(=O)[C@H]([C@@H](C)CC)N(C)C(=O)C [epoxomicin]
Method in brief: as §1

[3] = compound: CCn1cc(-c2ccnc3[nH]c(-c4cccc(CN(C)C)c4)cc23)c(-c2ccc(NC(=O)N(C)C)cc2)n1
Method in brief: as §1

[4] = compound: CN(C)CC(=O)Nc1ccc2[nH]c(=O)c3ccccc3c2c1
Method in brief: as §1

[5] = compound: CN1C2=C(C3=C1C(=O)N(N=C3)CC4=CC(=CC=C4)N)SC(=C2)S(=O)C
Method in brief: as §1

[6] = compound: CN1CCC(CNc2ccc3ncc(-c4cccc(OC(F)(F)F)c4)n3n2)CC1
Method in brief: as §1

saracatinib = compound: CN1CCN(CCOc2cc(OC3CCOCC3)c3c(Nc4c(Cl)ccc5c4OCO5)ncnc3c2)CC1 [saracatinib]
Method in brief: as §1

sotrastaurin = compound: CN1CCN(c2nc(C3=C(c4c[nH]c5ccccc45)C(=O)NC3=O)c3ccccc3n2)CC1 [sotrastaurin]
Method in brief: as §1

Tubastatin A = compound: CN1CCc2c(c3ccccc3n2Cc2ccc(C(=O)NO)cc2)C1 [Tubastatin A]
Method in brief: as §1

[7] = compound: CNC(=O)C1=CC=CC=C1NC2=NC(=NC=C2Cl)NC3=C(C=C(C=C3)N4CCOCC4)OC
Method in brief: as §1

defactinib = compound: CNC(=O)c1ccc(Nc2ncc(C(F)(F)F)c(NCc3nccnc3N(C)S(C)(=O)=O)n2)cc1 [defactinib]
Method in brief: as §1

rucaparib = compound: CNCc1ccc(-c2[nH]c3cc(F)cc4c3c2CCNC4=O)cc1 [rucaparib]
Method in brief: as §1

[8] = compound: CNc1nc(-c2ccc3c(N)n[nH]c3c2)cc(N2C[C@@H](C(=O)NC3CCCCC3)CC[C@H]2C)n1
Method in brief: as §1

encorafenib = compound: COC(=O)N[C@@H](C)CNc1nccc(-c2cn(C(C)C)nc2-c2cc(Cl)cc(NS(C)(=O)=O)c2F)n1 [encorafenib]
Method in brief: as §1

[9] = compound: COC(=O)[C@H](CCSC)NC(=O)C1=C(C=C(C=C1)NC[C@H](CS)N)C2=CC=CC=C2
Method in brief: as §1

[10] = compound: CCn1c(C(=O)N(C2CC2)C2CC2)cc2c3c(ncn3C)c(Nc3cc(C)n(C)n3)nc21
Method in brief: as §1

rosiglitazone = compound: CN(CCOC1=CC=C(C=C1)C[C@H]2C(=O)NC(=O)S2)C3=CC=CC=N3 (racemic) [rosiglitazone]
Method in brief: as §1

alvocidib = compound: CN1CC[C@H](c2c(O)cc(O)c3c(=O)cc(-c4ccccc4Cl)oc23)[C@H](O)C1 [alvocidib]
Method in brief: as §1

Measured: log2 fold change

DDOST (UniProt P39656)
inactive: [1] 0.006 | volasertib -0.102 | [2] -0.014 | epoxomicin -0.014 | [3] 0.052 | [4] -0.031 | [5] 0.019 | [6] 0.089 | saracatinib -0.015 | sotrastaurin -0.03 | Tubastatin A 0.021 | [7] 0.008 | defactinib 0.042 | rucaparib -0.029 | [8] -0.005 | encorafenib 0.059 | [9] -0.002

DGAT1 (UniProt O75907)
inactive: [1] 0.043 | volasertib -0.023 | [2] 0.022 | epoxomicin -0.056 | [10] 0.084 | [3] -0.098 | [4] -0.01 | rosiglitazone 0.135 | [5] 0.015 | [6] 0.004 | saracatinib 0.098 | sotrastaurin -0.016 | alvocidib 0.024 | Tubastatin A -0.004 | [7] -0.09 | defactinib -0.039 | rucaparib -0.223 | [8] 0.017 | encorafenib 0.116 | [9] -0.064

DENND4C isoform 7 (UniProt Q5VZ89)
inactive: [1] 0.025 | volasertib -0.135 | [2] 0.186 | epoxomicin -0.038 | [10] -0.123 | [3] -0.031 | [4] 0.081 | rosiglitazone 0.148 | [5] 0.115 | [6] -0.171 | saracatinib 0.043 | sotrastaurin -0.069 | alvocidib -0.073 | Tubastatin A -0.009 | [7] 0.048 | defactinib -0.118 | rucaparib 0.017 | [8] -0.033 | encorafenib 0.035 | [9] -0.005

DDX39B isoform 2 (UniProt Q13838)
inactive: [1] 0.059 | volasertib 0.063 | [2] -0.004 | epoxomicin -0.048 | [10] 0.004 | [3] 0.073 | [4] -0.039 | rosiglitazone -0.017 | [5] 0.028 | [6] 0.135 | saracatinib 0.004 | sotrastaurin -0.011 | alvocidib 0.042 | Tubastatin A -0.013 | [7] -0.061 | defactinib 0.063 | rucaparib 0.046 | [8] -0.03 | encorafenib -0.005 | [9] -0.014

DMD (UniProt P11532)
inactive: [1] -0.034 | volasertib -0.097 | [2] 0.036 | epoxomicin 0.01 | [10] 0.005 | [3] -0.019 | [4] 0.017 | rosiglitazone 0.03 | [5] -0.071 | [6] -0.006 | saracatinib 0.066 | sotrastaurin -0.016 | alvocidib -0.017 | Tubastatin A 0.004 | [7] -0.008 | defactinib -0.05 | rucaparib -0.01 | [8] -0.024 | encorafenib 0.007 | [9] -0.007

DHDDS isoform 2 (UniProt Q86SQ9)
inactive: [1] 0.053 | volasertib 0.021 | [2] -0.022 | epoxomicin -0.006 | [10] -0.006 | [3] 0.02 | [4] 0.061 | rosiglitazone -0.012 | [5] -0.058 | [6] 0.134 | saracatinib 0.023 | sotrastaurin 0.037 | alvocidib 0.018 | Tubastatin A 0.011 | [7] 0.023 | defactinib -0.039 | rucaparib -0.017 | [8] -0.009 | encorafenib 0.03 | [9] -0.099

DDX46 (UniProt Q7L014)
inactive: [1] -0.259 | volasertib -0.275 | [2] 0.087 | epoxomicin 0.192 | [3] -0.129 | [4] 0.133 | [5] -0.066 | [6] 0.087 | saracatinib 0 | sotrastaurin -0.197 | Tubastatin A 0.101 | [7] 0.054 | defactinib -0.296 | rucaparib -0.125 | [8] 0.028 | encorafenib 0.05 | [9] -0.085

DNA2 (UniProt P51530)
inactive: [1] 0.063 | volasertib -0.452 | [2] -0.147 | epoxomicin -0.047 | [3] -0.074 | [4] 0.126 | rosiglitazone 0.358 | [6] -0.007 | sotrastaurin 0.437 | defactinib -0.183 | rucaparib 0.036 | encorafenib -0.113 | [9] -0.04

DMAC2L (UniProt Q99766)
inactive: [1] 0.025 | volasertib 0.008 | [2] -0.003 | epoxomicin -0.012 | [10] -0.039 | [3] -0.017 | [4] 0.013 | rosiglitazone -0.007 | [5] -0.02 | [6] 0.252 | saracatinib -0.046 | sotrastaurin 0.097 | alvocidib -0.072 | Tubastatin A 0 | [7] -0.025 | defactinib 0.037 | rucaparib -0.036 | [8] -0.041 | encorafenib -0.035 | [9] 0.039

DGCR2 (UniProt P98153)
inactive: [1] -0.11 | volasertib -0.036 | [2] -0.027 | epoxomicin 0.016 | [10] -0.016 | [3] -0.045 | [4] 0.038 | rosiglitazone -0.044 | [5] -0.009 | [6] -0.004 | saracatinib 0.01 | sotrastaurin 0.034 | alvocidib -0.002 | Tubastatin A -0.023 | [7] -0.011 | defactinib 0.03 | rucaparib -0.035 | [8] -0.086 | encorafenib 0.033 | [9] -0.044

DLST (UniProt P36957)
inactive: [1] 0.042 | volasertib 0.177 | [2] -0.061 | epoxomicin 0.003 | [10] 0 | [3] 0.026 | [4] -0.046 | rosiglitazone -0.053 | [5] 0.074 | [6] 0.012 | saracatinib 0.023 | sotrastaurin -0.006 | alvocidib 0.078 | Tubastatin A -0.005 | [7] -0.057 | defactinib 0.074 | rucaparib 0.061 | [8] 0.005 | encorafenib 0 | [9] 0.041

DDX20 (UniProt Q9UHI6)
inactive: [1] 0.028 | volasertib -0.471 | [2] 0.076 | epoxomicin -0.186 | [10] 0.051 | [3] 0.283 | rosiglitazone 0.001 | [5] 0.132 | [6] -0.105 | saracatinib -0.153 | sotrastaurin -0.361 | alvocidib 0.153 | Tubastatin A -0.024 | [7] 0.119 | rucaparib 0.398 | [8] 0.02 | encorafenib 0.296

DHRS3 (UniProt O75911)
inactive: [1] 0.134 | volasertib 0.02 | [2] 0.02 | epoxomicin -0.002 | [3] 0.001 | [4] -0.054 | [5] -0.062 | [6] 0.056 | saracatinib -0.022 | sotrastaurin -0.008 | Tubastatin A -0.042 | [7] 0.044 | defactinib 0.077 | rucaparib -0.04 | [8] -0.016 | encorafenib 0.004 | [9] 0.027

Fetched one by one from above (2):
DDX20 (UniProt Q9UHI6)
inactive: [1] 0.028 | volasertib -0.471 | [2] 0.076 | epoxomicin -0.186 | [10] 0.051 | [3] 0.283 | rosiglitazone 0.001 | [5] 0.132 | [6] -0.105 | saracatinib -0.153 | sotrastaurin -0.361 | alvocidib 0.153 | Tubastatin A -0.024 | [7] 0.119 | rucaparib 0.398 | [8] 0.02 | encorafenib 0.296

DHRS3 (UniProt O75911)
inactive: [1] 0.134 | volasertib 0.02 | [2] 0.02 | epoxomicin -0.002 | [3] 0.001 | [4] -0.054 | [5] -0.062 | [6] 0.056 | saracatinib -0.022 | sotrastaurin -0.008 | Tubastatin A -0.042 | [7] 0.044 | defactinib 0.077 | rucaparib -0.04 | [8] -0.016 | encorafenib 0.004 | [9] 0.027

The list goes on.

DNAH5 (UniProt Q8TE73)
inactive: [1] 0.042 | volasertib 0.01 | [2] -0.079 | epoxomicin -0.052 | [3] -0.009 | [4] -0.031 | [5] 0.029 | [6] 0.03 | saracatinib 0.058 | sotrastaurin 0.017 | Tubastatin A 0.058 | [7] -0.057 | defactinib 0.015 | rucaparib -0.071 | [8] -0.099 | encorafenib -0.006 | [9] -0.072

DENND4A isoform 2 (UniProt Q7Z401)
inactive: [1] -0.012 | volasertib -0.081 | [2] 0.137 | epoxomicin -0.122 | [3] -0.002 | [4] 0.004 | rosiglitazone 0.046 | [5] 0.147 | [6] -0.231 | saracatinib -0.102 | sotrastaurin -0.239 | alvocidib 0.014 | Tubastatin A 0.022 | defactinib -0.032 | rucaparib 0.016 | [8] 0.046 | encorafenib 0.186 | [9] 0.03

DNAJA2 (UniProt O60884)
inactive: [1] -0.009 | volasertib -0.076 | [2] 0.033 | epoxomicin 0.026 | [10] -0.05 | [3] -0.047 | [4] -0.004 | rosiglitazone 0.024 | [5] -0.036 | [6] -0.013 | saracatinib 0.016 | sotrastaurin -0.01 | alvocidib -0.006 | Tubastatin A 0.025 | [7] 0.003 | defactinib -0.058 | rucaparib -0.012 | [8] -0.02 | encorafenib -0.002 | [9] -0.007
